Measurements reported in US20220305003A1, “METHODS OF TREATING CANCER WITH AN INHIBITOR OF ZNF827” (CHILDREN'S MEDICAL RESEARCH INSTITUTE, priority 2019, published 2022).
No signal at the amounts used counts as a negative. Protein sequences can lack the tags named with them.

Legend:
Assay in all cases: EMSA
[1] = molecular target: T1, ZNF827 full length (Homo sapiens) (UniProt Q17R98); details: purified recombinant protein, label: 32P
T1 sequence: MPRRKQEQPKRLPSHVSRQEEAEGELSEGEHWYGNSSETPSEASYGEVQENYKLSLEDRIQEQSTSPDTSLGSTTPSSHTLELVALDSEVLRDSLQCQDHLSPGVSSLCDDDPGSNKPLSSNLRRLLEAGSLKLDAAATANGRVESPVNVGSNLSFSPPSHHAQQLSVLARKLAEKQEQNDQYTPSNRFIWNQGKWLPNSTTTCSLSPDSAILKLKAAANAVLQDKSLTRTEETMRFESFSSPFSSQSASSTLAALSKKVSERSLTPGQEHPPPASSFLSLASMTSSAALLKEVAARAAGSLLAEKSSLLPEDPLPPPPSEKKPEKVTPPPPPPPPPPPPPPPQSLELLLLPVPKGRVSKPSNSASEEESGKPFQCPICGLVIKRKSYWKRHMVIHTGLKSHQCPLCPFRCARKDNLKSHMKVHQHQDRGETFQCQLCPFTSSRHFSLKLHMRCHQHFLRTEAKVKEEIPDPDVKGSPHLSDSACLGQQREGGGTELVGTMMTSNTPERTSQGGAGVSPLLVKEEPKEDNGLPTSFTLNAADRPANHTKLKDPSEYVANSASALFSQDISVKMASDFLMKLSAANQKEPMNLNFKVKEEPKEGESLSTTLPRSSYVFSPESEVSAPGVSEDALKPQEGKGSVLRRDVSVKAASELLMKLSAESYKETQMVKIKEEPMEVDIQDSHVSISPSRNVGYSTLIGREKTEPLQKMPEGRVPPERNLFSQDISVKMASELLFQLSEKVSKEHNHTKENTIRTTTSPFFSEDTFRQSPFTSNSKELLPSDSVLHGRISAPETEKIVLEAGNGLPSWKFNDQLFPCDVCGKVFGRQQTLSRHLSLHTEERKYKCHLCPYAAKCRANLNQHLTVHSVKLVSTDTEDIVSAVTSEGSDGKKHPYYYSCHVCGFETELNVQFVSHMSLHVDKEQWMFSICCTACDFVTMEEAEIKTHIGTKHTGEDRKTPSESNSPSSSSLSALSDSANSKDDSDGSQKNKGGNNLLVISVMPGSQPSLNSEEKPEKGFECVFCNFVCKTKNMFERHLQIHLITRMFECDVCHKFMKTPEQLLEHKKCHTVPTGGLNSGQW

[2] = molecular target: T2, ZNF827 ZnF1-3 deleted (Homo sapiens) (UniProt Q17R98); details: purified recombinant protein, label: 32P
T2 sequence: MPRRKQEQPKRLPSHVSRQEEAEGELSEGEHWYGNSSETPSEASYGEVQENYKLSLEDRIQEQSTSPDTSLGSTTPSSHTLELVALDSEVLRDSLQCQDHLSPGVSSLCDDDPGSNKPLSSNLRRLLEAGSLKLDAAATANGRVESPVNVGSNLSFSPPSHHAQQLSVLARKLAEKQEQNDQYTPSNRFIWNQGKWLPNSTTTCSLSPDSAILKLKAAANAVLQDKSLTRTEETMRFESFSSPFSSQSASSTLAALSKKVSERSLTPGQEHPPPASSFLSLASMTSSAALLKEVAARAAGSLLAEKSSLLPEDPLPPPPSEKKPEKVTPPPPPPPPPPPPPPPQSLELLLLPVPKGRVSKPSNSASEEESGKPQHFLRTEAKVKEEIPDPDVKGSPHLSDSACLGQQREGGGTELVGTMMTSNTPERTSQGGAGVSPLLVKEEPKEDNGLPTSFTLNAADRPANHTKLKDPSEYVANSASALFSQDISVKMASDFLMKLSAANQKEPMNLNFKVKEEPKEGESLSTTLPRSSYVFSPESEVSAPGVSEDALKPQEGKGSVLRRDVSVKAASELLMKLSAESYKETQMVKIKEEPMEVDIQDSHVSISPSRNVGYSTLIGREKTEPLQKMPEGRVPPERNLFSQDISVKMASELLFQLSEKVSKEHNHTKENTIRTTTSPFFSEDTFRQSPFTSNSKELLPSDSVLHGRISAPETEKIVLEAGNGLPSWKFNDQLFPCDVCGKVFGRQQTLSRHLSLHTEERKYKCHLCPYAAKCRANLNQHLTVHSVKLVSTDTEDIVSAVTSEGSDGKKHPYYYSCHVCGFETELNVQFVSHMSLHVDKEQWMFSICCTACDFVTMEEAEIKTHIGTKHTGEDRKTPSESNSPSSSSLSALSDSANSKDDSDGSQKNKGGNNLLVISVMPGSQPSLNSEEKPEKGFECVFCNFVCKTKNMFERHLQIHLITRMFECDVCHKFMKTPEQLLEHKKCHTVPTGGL

[3] = molecular target: T3, ZNF827 SUMOylation mutant (Homo sapiens) (UniProt Q17R98); details: any of the mutant proteins; purified recombinant protein; label: 32P
T3 sequence: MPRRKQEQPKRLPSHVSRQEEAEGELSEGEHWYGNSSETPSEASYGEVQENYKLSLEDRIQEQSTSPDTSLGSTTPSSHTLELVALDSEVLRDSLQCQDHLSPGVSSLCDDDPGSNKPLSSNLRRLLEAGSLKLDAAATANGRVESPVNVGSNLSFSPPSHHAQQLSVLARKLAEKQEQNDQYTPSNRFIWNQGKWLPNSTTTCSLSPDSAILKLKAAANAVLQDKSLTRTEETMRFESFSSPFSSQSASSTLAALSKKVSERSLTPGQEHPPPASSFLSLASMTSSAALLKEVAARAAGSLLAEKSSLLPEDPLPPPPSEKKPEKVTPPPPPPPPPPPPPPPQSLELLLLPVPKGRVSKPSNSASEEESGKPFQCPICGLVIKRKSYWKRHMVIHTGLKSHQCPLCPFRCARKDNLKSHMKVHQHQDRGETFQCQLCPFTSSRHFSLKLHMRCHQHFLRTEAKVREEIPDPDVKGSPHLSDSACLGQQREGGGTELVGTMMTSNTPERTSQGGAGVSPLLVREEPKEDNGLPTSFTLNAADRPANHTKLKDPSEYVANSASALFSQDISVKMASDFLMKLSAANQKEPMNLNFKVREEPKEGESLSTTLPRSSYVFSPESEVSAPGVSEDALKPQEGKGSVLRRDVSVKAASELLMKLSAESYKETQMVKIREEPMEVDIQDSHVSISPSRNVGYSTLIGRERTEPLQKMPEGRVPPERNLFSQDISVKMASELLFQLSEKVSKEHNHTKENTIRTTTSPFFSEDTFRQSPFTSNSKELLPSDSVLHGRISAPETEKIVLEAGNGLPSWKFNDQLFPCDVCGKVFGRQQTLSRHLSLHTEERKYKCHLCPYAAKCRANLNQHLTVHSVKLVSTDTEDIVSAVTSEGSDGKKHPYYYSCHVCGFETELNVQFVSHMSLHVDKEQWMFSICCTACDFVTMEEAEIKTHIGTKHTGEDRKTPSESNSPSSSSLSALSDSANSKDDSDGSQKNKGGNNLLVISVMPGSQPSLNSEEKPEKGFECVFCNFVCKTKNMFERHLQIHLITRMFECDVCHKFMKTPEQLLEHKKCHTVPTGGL

| Sequence | binding result ([1]; ds counterpart of pentaprobes) | binding result ([2]; legend: ZNF827 and mutants display no binding to ds DNA) | binding result ([1]; ds probe treated with Exo VII) | binding result [3] | binding result ([2]; any of the mutant proteins) |
| --- | --- | --- | --- | --- | --- |
| CGCTCTATTCTACTGTCCTGTGCATTCAATCGTTGAGTTCGATCTAGTCTCGTCTAACCCTCCCCTGCTCCGCTGGTCTGGCCTCGCCTATCCTACCCAT (double strand) [ds pentaprobe 3-9] | no binding | no binding |  |  |  |
| TTAGGGTTAGGGTTAGGG (double strand) [ds telomeric oligo] |  |  | no binding | no binding | no binding |
